Compound in the experiment: Nc1ncnc2c1ncn2[C@@H]1O[C@H](COP(=O)(O)OP(=O)(O)OP(=O)(O)O)[C@@H](O)[C@H]1O [adenosine triphosphate]
Nature of the experiment: NP40-soluble protein abundance relative to vehicle (solubility fold change) (ratio); higher = more soluble protein in presence of ATP. Put shortly:
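Across three independent experiments, values are fold changes against the detergent-processed vehicle for each replicate, based on vsn-normalised intensities. The samples were Jurkat crude lysate treated with eight concentrations (0.1 to 10 mM) for 10 min at room temperature and then 3 min at 37 °C. Lysate was solubilised with 0.8% NP40 and benzonase, ultracentrifuged, and the supernatant analysed by TMT-labelled LC-MS/MS.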

The chains behind the UniProt entries cited, without tags or fusion partners. Where a name states a change or a piece, a line headed by the entry shows the natural chain unless it says otherwise.
UniProt Q9Y2X7: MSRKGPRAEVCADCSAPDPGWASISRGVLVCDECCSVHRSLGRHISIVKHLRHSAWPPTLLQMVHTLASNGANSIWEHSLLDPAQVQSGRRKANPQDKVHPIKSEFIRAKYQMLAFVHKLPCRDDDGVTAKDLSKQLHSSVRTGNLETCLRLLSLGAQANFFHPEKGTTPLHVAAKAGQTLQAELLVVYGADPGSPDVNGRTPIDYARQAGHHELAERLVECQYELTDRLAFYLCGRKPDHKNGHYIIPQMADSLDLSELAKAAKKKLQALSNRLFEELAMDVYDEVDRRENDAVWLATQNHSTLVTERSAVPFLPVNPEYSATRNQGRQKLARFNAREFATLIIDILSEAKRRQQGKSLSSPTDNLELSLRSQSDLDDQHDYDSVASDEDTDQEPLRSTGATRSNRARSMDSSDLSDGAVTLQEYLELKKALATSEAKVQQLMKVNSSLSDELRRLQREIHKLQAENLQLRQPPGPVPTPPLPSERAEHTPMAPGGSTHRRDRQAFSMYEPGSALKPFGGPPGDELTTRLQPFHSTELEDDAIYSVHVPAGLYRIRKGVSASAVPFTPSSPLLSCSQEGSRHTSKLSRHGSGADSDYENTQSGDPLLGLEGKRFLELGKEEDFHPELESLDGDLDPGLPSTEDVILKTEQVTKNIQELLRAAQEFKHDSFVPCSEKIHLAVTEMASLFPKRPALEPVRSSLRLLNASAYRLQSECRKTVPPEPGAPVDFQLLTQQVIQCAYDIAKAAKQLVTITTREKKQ
UniProt Q9Y4G8: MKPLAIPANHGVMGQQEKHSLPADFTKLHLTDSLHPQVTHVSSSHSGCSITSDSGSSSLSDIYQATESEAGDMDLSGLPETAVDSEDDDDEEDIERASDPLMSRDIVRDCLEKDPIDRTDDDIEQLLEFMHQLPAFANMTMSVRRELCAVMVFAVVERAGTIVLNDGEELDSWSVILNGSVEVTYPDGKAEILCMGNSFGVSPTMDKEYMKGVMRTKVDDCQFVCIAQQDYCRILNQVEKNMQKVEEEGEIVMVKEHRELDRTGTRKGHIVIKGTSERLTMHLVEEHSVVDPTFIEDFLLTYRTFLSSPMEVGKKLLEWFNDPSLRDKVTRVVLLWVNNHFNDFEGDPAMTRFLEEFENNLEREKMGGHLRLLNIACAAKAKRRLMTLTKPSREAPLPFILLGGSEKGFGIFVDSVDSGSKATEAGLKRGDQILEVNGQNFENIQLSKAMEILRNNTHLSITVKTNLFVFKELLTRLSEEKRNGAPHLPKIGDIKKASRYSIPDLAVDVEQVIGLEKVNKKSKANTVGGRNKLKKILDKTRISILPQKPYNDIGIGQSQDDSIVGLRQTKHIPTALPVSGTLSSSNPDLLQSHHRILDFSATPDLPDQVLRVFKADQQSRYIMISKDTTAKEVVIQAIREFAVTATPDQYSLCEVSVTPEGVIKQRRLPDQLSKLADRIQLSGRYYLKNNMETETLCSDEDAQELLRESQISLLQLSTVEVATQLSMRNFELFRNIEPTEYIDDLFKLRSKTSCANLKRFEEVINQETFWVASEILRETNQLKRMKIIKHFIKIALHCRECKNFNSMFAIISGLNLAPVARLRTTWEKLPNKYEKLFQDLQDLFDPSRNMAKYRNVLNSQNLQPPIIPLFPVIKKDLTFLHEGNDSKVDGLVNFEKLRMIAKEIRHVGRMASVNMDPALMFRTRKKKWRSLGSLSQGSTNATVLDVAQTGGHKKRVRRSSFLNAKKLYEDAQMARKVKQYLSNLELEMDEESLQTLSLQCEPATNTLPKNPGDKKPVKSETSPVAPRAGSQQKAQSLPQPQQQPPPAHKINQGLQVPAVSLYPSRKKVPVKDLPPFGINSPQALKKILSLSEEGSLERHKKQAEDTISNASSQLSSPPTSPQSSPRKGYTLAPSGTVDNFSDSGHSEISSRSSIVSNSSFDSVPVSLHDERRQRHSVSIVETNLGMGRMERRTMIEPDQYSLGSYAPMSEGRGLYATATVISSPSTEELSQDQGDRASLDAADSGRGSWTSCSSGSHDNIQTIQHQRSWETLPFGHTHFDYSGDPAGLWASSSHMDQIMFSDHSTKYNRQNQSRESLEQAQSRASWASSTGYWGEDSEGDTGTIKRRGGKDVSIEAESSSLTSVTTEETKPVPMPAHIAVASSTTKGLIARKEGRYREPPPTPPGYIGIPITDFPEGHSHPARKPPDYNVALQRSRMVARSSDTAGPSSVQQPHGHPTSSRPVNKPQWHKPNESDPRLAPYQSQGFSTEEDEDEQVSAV
UniProt Q9Y3C1: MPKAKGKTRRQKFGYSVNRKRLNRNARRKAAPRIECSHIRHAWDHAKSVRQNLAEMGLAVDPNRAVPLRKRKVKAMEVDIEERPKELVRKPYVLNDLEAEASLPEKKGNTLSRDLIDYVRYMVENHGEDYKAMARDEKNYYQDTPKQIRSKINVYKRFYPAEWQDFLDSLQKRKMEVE
UniProt Q9Y5P6: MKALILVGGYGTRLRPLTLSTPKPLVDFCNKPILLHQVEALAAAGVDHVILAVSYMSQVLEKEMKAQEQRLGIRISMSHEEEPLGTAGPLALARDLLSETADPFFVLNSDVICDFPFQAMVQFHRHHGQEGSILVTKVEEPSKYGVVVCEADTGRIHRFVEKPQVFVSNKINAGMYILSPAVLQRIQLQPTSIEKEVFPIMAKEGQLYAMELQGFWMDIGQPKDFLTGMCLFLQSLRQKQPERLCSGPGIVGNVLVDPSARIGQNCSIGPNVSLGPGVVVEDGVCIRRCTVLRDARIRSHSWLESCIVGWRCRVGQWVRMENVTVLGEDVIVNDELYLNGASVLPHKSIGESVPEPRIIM
UniProt Q9Y6J9: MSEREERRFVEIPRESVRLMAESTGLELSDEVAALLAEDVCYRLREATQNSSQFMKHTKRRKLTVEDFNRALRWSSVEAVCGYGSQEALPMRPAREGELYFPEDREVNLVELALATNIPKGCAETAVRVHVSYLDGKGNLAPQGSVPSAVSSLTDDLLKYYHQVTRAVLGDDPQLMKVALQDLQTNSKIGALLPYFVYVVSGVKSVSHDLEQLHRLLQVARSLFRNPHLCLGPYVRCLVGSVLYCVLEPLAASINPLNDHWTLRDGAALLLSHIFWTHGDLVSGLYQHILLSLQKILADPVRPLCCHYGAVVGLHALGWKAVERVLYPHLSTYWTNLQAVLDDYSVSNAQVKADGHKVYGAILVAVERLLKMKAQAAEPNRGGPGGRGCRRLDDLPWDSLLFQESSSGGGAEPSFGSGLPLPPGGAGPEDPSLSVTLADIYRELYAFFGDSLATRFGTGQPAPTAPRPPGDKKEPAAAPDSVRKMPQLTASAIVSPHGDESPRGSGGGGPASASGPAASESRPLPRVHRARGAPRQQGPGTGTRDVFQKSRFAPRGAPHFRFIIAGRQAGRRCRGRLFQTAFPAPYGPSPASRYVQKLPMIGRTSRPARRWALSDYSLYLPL
UniProt Q9Y4G6: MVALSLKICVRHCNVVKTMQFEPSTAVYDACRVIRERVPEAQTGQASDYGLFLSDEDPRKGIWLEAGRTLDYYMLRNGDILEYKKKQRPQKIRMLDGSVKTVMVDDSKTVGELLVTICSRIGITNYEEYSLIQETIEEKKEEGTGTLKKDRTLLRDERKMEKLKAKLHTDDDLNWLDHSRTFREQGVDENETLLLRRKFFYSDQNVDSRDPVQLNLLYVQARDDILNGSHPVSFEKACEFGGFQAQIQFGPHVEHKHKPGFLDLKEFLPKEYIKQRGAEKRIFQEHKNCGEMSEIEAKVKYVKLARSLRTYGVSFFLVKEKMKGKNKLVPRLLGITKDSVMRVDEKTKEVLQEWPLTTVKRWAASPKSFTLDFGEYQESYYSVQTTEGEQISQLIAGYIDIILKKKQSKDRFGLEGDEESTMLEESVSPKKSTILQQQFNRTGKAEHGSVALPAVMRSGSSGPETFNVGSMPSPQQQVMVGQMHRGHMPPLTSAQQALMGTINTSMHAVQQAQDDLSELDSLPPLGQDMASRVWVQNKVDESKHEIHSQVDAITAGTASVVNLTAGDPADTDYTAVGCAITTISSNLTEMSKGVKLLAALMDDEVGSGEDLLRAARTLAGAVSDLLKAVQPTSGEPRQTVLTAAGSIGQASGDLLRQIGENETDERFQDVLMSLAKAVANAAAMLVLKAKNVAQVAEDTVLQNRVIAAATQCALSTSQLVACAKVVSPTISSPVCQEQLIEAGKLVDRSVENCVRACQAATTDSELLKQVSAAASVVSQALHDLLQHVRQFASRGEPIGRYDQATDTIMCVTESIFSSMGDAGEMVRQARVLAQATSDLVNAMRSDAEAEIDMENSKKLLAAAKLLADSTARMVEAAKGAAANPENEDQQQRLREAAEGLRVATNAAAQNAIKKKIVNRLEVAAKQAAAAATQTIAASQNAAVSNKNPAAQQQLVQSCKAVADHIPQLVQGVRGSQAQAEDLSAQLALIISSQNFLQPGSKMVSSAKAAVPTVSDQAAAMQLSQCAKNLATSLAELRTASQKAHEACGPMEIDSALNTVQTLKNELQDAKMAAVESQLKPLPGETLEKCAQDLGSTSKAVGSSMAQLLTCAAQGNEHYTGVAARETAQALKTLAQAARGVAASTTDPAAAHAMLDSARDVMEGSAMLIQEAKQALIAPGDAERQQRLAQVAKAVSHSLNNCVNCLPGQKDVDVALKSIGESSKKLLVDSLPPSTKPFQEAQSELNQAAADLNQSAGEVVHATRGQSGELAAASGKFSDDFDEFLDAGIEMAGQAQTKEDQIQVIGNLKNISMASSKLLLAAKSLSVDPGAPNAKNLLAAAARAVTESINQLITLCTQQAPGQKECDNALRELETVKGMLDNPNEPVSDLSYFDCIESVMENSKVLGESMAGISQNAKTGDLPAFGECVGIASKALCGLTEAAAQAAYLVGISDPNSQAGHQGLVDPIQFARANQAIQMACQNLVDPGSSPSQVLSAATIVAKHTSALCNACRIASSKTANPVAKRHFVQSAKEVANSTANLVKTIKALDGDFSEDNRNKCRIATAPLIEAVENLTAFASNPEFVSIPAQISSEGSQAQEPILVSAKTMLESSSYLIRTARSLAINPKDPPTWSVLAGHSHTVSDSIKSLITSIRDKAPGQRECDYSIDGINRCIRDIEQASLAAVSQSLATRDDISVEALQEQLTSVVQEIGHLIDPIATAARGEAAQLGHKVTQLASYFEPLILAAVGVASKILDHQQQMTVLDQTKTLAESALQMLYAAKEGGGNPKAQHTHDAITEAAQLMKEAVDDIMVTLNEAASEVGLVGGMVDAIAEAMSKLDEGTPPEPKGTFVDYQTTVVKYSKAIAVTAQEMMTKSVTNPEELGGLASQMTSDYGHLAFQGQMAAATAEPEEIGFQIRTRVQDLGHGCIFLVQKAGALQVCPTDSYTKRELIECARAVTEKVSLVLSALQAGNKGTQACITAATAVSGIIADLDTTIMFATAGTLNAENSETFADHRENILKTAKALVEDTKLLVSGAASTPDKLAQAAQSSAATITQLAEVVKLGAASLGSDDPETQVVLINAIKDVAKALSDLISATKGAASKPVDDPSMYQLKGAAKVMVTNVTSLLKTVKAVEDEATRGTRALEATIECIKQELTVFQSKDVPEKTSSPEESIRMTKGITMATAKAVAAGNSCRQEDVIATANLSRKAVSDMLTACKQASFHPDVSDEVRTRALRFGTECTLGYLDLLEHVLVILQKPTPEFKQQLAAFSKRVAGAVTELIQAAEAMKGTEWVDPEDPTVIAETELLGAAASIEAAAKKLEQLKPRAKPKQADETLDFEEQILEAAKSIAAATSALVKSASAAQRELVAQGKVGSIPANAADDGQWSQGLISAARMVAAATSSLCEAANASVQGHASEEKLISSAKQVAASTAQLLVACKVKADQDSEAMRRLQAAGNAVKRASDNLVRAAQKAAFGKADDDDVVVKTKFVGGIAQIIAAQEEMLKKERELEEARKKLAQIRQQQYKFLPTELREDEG
UniProt Q9Y2Q3: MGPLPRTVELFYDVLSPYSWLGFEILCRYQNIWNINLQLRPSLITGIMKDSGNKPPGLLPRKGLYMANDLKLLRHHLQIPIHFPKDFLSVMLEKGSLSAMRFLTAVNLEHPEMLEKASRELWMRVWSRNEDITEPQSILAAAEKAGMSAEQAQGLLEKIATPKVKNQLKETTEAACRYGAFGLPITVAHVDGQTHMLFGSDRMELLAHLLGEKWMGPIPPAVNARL
UniProt Q9Y2C4: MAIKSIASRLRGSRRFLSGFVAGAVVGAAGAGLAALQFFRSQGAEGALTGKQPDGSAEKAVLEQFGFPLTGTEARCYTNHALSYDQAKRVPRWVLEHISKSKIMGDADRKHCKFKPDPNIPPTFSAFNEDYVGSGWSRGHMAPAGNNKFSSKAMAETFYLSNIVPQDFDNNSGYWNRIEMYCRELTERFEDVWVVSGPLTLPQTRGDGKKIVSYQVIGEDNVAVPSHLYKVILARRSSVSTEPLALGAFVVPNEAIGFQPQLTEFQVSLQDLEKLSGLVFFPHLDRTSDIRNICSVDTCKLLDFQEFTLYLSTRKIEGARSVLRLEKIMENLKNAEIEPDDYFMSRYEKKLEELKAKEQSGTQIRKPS

± gives the standard deviation of the averaged measurements. The list shows a part of the results, in another mix than the full data.

Take “R4GN35 and related entries (UniProt Q5VZ89)”: the NP40-soluble protein abundance reads like this: (concentration: 1mM) 0.987 ± 0.075; (concentration: 2mM) 0.952 ± 0.073; (concentration: 4mM) 0.978 ± 0.079; (concentration: 6mM) 0.967 ± 0.062; (concentration: 8mM) 0.954 ± 0.086; (concentration: 10mM) 0.947 ± 0.054.

With UTP18 (UniProt Q9Y5J1), the NP40-soluble protein abundance (concentration: 1mM) stood at 1.114 ± 0.0018; the NP40-soluble protein abundance (concentration: 2mM) amounted to 1.15 ± 0.053; the NP40-soluble protein abundance (concentration: 4mM) amounted to 1.28 ± 0.057; the NP40-soluble protein abundance (concentration: 6mM) came to 1.39 ± 0.041; the NP40-soluble protein abundance (concentration: 8mM) is 1.5 ± 0.057; the NP40-soluble protein abundance (concentration: 10mM) stood at 1.59 ± 0.13.

Turning to UniProt Q9Y2X7 and related entries, the NP40-soluble protein abundance amounted to 0.973 ± 0.025 (concentration: 1mM); 0.981 ± 0.014 (concentration: 2mM); 0.966 ± 0.031 (concentration: 4mM); 0.975 ± 0.032 (concentration: 6mM); 0.953 ± 0.044 (concentration: 8mM); 0.963 ± 0.048 (concentration: 10mM).

Regarding UniProt Q9Y3C4 and related entries, the NP40-soluble protein abundance runs as follows: (concentration: 1mM) 0.961 ± 0.059; (concentration: 2mM) 0.984 ± 0.029; (concentration: 4mM) 0.947 ± 0.041; (concentration: 6mM) 0.945 ± 0.045; (concentration: 8mM) 0.981 ± 0.032; (concentration: 10mM) 0.926 ± 0.045.

As to UniProt Q9Y4G8 and related entries, the NP40-soluble protein abundance by setting is: (concentration: 1mM) 0.976 ± 0.1; (concentration: 2mM) 0.942 ± 0.051; (concentration: 4mM) 1.02 ± 0.092; (concentration: 6mM) 1.02 ± 0.086; (concentration: 8mM) 0.945 ± 0.051; (concentration: 10mM) 0.972 ± 0.054.

As for LEMD3 (UniProt Q9Y2U8), the NP40-soluble protein abundance reads like this: (concentration: 1mM) 1.02 ± 0.018; (concentration: 2mM) 1.25 ± 0.073; (concentration: 4mM) 1.08 ± 0.032; (concentration: 6mM) 1.09 ± 0.023; (concentration: 8mM) 1.01 ± 0.011; (concentration: 10mM) 1.09 ± 0.033.

Consider SRPRB (UniProt Q9Y5M8), for which the NP40-soluble protein abundance (concentration: 1mM) was found to be 1.03 ± 0.052; the NP40-soluble protein abundance (concentration: 2mM) was 1.04 ± 0.05; the NP40-soluble protein abundance (concentration: 4mM) was 1.01 ± 0.035; the NP40-soluble protein abundance (concentration: 6mM) came to 1.1 ± 0.07; the NP40-soluble protein abundance (concentration: 8mM) was 1.01 ± 0.024; the NP40-soluble protein abundance (concentration: 10mM) came to 1.01 ± 0.0056.

Regarding UniProt Q9Y3C1 and related entries, the NP40-soluble protein abundance (concentration: 1mM) was found to be 1 ± 0.053; the NP40-soluble protein abundance (concentration: 2mM) stood at 1.01 ± 0.022; the NP40-soluble protein abundance (concentration: 4mM) was 0.868 ± 0.043; the NP40-soluble protein abundance (concentration: 6mM) stood at 0.852 ± 0.071; the NP40-soluble protein abundance (concentration: 8mM) is 0.714 ± 0.21; the NP40-soluble protein abundance (concentration: 10mM) is 0.875 ± 0.24.

Regarding UniProt Q9Y3D5 and related entries, the NP40-soluble protein abundance was determined as 1.01 ± 0.093 (concentration: 1mM); 0.861 ± 0.14 (concentration: 2mM); 0.869 ± 0.087 (concentration: 4mM); 0.854 ± 0.24 (concentration: 6mM); 0.828 ± 0.15 (concentration: 8mM); 0.767 ± 0.15 (concentration: 10mM).

On to GMPPB (UniProt Q9Y5P6), for which the NP40-soluble protein abundance was determined as 1 ± 0.07 (concentration: 1mM); 0.969 ± 0.062 (concentration: 2mM); 0.987 ± 0.075 (concentration: 4mM); 0.953 ± 0.093 (concentration: 6mM); 0.978 ± 0.039 (concentration: 8mM); 0.945 ± 0.057 (concentration: 10mM).

Regarding CHCHD2 (UniProt Q9Y6H1), the NP40-soluble protein abundance was determined as 0.961 ± 0.075 (concentration: 1mM); 0.926 ± 0.099 (concentration: 2mM); 0.958 ± 0.039 (concentration: 4mM); 0.958 ± 0.12 (concentration: 6mM); 0.865 ± 0.12 (concentration: 8mM); 0.849 ± 0.093 (concentration: 10mM).

As to TAF6L (UniProt Q9Y6J9), the NP40-soluble protein abundance runs as follows: (concentration: 1mM) 1.08 ± 0.11; (concentration: 2mM) 1.1 ± 0.05; (concentration: 4mM) 1.08 ± 0.015; (concentration: 6mM) 1.02 ± 0.063; (concentration: 8mM) 1.08 ± 0.011; (concentration: 10mM) 1.11 ± 0.075.

With TLN2 (UniProt Q9Y4G6), the NP40-soluble protein abundance was 0.987 ± 0.04 (concentration: 1mM); 0.99 ± 0.039 (concentration: 2mM); 1.01 ± 0.056 (concentration: 4mM); 0.993 ± 0.024 (concentration: 6mM); 0.9302 ± 0.0053 (concentration: 8mM); 0.973 ± 0.057 (concentration: 10mM).

UniProt Q9Y2S2 and related entries: the NP40-soluble protein abundance reads like this: (concentration: 1mM) 0.9283 ± 0.0087; (concentration: 2mM) 0.967 ± 0.016; (concentration: 4mM) 0.947 ± 0.036; (concentration: 6mM) 0.934 ± 0.053; (concentration: 8mM) 0.913 ± 0.019; (concentration: 10mM) 0.953 ± 0.028.

On to GSTK1 (UniProt Q9Y2Q3), for which the NP40-soluble protein abundance runs as follows: (concentration: 1mM) 1 ± 0.065; (concentration: 2mM) 0.994 ± 0.04; (concentration: 4mM) 0.975 ± 0.074; (concentration: 6mM) 0.932 ± 0.088; (concentration: 8mM) 0.946 ± 0.057; (concentration: 10mM) 0.94 ± 0.057.

Consider UniProt Q9Y3E7 and related entries, for which the NP40-soluble protein abundance reads like this: (concentration: 1mM) 1.21 ± 0.061; (concentration: 2mM) 1.21 ± 0.1; (concentration: 4mM) 1.18 ± 0.091; (concentration: 6mM) 1.29 ± 0.06; (concentration: 8mM) 1.28 ± 0.084; (concentration: 10mM) 1.16 ± 0.05.

Turning to UniProt Q9Y2C4 and related entries, the NP40-soluble protein abundance was found to be 1.1 ± 0.03 (concentration: 1mM); 1.07 ± 0.058 (concentration: 2mM); 1.12 ± 0.043 (concentration: 4mM); 1.08 ± 0.046 (concentration: 6mM); 1.09 ± 0.038 (concentration: 8mM); 1.07 ± 0.011 (concentration: 10mM).

Consider UniProt Q9Y5W9 and related entries, for which the NP40-soluble protein abundance runs as follows: (concentration: 1mM) 0.958 ± 0.14; (concentration: 2mM) 1.03 ± 0.079; (concentration: 4mM) 0.973 ± 0.14; (concentration: 6mM) 0.949 ± 0.12; (concentration: 8mM) 0.892 ± 0.082; (concentration: 10mM) 0.966 ± 0.095.

These data come from the supplement of paper PMC6411743.
